# Earlier results, collected in patent publication US20080138790A1 (priority 2004, published 2008).
# At least one compound was matched to its structure with a doubt left.
# Details: cited from earlier work
smiles,measurement,value
CCCCCCCCCCCCO[C@@H]1O[C@H](CO)[C@@H](O[C@H]2O[C@H](CO)[C@@H](O)[C@H](O)[C@H]2O)[C@H](O)[C@H]1O [Dodecylmaltopyranoside],CMC,0.1 to 0.6 mM
